This is one part of the list.
Assays:
Assay in all cases: log2 fold change, soluble protein after heating vs DMSO (PISA); higher = thermal stabilisation; K562 cells, 10 uM, 30 min; active = over 0.2 and 3.5 SD of the protein, either way, in both replicates (recomputed)
[1] = compound: CS(=O)(=O)c1ccc(-c2cnc(N)c(C(=O)Nc3ccccc3)n2)cc1
In short: (§1)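 Aliquots of K562 cells (2×10^6 cells/mL) treated with 10 μM compound for 30 min were heated for 3 min over 48°C-58°C. After pooling and extraction in PBS with 0.5% NP-40 at 4°C, soluble protein from a 21,000xg, 90 min spin was quantified by TMTpro 16plex LC-MS/MS with channel sums equalised. Thermal stability is expressed against control samples, from duplicates, as a log2 fold change.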

Chains of the proteins cited; added tags and fusions are not shown. Lines headed by an entry give the natural chain unless they say otherwise; changes in a name come on top.
UniProt Q5F1R6: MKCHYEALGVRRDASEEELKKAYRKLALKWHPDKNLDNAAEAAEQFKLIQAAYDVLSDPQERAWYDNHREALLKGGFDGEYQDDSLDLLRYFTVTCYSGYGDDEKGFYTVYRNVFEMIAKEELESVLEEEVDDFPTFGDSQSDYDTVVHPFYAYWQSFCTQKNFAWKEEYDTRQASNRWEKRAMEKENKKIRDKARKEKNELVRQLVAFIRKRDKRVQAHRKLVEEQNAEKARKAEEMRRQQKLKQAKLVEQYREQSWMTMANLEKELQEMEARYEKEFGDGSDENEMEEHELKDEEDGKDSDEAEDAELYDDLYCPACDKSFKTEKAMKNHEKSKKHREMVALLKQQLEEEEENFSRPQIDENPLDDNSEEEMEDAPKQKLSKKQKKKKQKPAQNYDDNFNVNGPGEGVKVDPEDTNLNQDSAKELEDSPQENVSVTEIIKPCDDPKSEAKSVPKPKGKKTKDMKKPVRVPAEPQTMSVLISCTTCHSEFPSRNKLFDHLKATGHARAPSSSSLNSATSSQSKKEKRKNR
UniProt O75521: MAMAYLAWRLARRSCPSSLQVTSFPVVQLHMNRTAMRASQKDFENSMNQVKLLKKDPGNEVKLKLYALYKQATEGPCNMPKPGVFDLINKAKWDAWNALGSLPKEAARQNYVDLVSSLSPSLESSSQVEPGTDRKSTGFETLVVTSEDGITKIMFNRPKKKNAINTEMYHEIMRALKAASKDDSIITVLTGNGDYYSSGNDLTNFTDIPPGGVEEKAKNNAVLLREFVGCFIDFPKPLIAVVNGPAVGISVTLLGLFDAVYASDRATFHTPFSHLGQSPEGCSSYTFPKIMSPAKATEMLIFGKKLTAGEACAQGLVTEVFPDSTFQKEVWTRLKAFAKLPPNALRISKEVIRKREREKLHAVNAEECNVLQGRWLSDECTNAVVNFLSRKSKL
UniProt Q8TEA8: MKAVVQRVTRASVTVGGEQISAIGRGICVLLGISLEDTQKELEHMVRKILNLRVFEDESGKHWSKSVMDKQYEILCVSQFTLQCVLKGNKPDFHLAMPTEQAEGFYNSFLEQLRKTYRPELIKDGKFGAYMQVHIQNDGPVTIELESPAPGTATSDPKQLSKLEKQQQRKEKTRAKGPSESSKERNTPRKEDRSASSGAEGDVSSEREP
UniProt P51452: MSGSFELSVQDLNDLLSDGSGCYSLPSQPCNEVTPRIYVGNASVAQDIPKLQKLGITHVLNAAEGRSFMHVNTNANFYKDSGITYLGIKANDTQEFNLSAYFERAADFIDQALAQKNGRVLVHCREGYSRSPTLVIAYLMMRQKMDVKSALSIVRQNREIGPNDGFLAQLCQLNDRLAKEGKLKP
UniProt P60981: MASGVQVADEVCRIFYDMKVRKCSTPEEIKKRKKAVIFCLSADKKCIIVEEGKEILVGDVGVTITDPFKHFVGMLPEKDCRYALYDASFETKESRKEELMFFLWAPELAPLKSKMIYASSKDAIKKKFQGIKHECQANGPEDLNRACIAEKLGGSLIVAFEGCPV
UniProt Q01658: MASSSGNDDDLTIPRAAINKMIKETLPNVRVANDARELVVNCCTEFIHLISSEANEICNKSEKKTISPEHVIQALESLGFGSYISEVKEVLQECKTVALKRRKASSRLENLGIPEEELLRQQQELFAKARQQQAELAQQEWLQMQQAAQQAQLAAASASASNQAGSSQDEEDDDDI
UniProt Q9NYP3: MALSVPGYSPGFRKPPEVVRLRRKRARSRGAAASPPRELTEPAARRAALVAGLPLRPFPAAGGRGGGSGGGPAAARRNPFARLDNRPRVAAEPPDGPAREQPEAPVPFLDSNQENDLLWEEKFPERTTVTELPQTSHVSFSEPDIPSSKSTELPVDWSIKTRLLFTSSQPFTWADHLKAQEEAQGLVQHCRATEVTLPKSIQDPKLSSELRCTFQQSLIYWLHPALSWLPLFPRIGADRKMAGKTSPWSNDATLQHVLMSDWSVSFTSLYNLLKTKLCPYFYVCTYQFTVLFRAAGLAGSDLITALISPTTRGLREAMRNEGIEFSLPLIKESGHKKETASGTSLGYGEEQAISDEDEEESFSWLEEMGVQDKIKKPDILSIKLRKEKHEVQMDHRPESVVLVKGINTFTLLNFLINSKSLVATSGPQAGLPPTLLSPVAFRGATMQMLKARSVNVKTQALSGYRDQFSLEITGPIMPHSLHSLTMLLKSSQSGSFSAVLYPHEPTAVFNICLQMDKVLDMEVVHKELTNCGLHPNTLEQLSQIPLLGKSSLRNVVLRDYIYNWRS
UniProt O60762: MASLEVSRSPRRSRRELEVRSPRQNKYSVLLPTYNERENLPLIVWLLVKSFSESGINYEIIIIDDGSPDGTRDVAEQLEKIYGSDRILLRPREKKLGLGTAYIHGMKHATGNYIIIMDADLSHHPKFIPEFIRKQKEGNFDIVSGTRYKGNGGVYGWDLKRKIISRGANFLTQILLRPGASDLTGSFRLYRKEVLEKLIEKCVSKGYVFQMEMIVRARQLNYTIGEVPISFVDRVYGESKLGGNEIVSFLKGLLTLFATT
UniProt Q13217: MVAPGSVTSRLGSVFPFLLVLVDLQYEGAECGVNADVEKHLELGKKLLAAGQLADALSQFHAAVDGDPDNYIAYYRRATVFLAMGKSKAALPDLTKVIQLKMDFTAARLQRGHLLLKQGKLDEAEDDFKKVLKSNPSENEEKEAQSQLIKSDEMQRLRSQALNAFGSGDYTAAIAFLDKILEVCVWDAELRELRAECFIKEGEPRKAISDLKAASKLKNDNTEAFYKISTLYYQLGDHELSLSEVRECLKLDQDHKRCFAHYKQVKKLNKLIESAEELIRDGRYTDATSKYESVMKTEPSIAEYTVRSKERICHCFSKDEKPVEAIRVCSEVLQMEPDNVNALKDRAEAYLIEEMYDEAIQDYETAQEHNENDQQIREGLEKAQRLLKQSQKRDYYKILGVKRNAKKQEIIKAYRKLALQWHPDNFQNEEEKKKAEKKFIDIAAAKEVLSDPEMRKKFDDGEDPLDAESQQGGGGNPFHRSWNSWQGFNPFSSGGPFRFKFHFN
UniProt Q9C005, whole entry, looked up: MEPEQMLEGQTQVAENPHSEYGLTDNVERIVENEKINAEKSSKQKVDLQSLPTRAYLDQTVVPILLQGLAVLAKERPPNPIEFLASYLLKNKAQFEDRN
UniProt O00429, whole entry, looked up: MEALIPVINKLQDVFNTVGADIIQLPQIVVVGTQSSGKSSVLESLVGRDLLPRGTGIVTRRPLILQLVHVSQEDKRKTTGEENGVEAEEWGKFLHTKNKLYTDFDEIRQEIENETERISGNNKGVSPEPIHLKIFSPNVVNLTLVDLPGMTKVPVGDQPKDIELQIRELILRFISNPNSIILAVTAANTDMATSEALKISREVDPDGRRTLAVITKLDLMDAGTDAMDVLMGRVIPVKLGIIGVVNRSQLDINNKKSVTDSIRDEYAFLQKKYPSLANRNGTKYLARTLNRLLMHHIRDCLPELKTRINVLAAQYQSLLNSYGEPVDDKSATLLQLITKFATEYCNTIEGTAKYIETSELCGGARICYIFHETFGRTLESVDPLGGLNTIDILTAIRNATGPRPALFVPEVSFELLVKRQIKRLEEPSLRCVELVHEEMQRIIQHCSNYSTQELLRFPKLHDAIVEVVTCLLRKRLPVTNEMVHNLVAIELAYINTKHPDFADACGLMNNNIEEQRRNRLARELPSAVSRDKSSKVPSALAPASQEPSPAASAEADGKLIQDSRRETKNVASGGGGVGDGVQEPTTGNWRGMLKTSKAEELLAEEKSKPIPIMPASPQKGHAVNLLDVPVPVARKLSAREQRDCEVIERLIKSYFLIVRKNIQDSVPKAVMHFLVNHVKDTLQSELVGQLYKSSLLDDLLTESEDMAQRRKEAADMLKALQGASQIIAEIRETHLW
UniProt Q9UKB3: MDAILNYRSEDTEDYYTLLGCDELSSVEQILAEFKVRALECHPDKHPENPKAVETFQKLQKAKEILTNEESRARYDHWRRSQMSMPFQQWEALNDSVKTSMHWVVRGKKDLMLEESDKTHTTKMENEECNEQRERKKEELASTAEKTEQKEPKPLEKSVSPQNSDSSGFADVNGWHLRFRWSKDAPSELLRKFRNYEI
UniProt Q8WXX5: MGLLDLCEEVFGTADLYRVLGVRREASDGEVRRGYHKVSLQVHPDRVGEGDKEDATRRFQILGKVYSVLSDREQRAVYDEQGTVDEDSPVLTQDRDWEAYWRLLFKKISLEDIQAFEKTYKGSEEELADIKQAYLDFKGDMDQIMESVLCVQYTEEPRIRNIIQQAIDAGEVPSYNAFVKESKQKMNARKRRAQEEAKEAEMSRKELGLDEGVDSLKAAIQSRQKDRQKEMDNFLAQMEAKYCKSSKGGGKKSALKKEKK
UniProt Q8WWZ3: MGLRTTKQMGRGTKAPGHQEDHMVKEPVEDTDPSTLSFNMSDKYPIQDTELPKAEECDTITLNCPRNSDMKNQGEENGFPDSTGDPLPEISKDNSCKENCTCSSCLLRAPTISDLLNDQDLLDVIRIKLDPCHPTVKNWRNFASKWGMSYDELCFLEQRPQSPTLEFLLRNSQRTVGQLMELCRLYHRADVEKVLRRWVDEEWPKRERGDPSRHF
UniProt Q14126: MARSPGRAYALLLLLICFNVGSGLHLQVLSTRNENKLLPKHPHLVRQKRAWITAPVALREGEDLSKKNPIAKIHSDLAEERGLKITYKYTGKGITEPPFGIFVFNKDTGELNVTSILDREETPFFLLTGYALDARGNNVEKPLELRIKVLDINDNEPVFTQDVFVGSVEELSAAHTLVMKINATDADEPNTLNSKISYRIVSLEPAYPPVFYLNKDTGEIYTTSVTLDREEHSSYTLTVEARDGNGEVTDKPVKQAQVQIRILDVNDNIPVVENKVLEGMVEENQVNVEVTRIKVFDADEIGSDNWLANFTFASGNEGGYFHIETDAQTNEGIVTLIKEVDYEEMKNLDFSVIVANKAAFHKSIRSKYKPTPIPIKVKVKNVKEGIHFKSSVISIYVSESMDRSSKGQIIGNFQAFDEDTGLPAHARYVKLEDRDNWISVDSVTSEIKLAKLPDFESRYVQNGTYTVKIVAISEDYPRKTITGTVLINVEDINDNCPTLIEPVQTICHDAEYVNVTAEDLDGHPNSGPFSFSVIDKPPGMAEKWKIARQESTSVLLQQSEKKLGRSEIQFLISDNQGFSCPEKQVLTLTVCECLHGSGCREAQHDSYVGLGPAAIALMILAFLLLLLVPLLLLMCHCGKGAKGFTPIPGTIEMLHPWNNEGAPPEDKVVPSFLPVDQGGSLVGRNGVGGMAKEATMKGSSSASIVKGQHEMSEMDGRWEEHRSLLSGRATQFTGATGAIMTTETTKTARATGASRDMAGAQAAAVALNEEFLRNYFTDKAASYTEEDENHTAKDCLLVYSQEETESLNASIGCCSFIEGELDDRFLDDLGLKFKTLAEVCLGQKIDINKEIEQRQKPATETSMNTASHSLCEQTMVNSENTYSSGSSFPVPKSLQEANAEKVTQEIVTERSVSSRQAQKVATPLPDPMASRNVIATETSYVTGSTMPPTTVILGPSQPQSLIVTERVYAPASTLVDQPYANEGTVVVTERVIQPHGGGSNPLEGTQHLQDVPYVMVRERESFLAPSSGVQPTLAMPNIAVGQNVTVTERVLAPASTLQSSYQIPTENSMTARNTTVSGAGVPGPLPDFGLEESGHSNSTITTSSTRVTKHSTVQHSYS
UniProt Q9UDY4: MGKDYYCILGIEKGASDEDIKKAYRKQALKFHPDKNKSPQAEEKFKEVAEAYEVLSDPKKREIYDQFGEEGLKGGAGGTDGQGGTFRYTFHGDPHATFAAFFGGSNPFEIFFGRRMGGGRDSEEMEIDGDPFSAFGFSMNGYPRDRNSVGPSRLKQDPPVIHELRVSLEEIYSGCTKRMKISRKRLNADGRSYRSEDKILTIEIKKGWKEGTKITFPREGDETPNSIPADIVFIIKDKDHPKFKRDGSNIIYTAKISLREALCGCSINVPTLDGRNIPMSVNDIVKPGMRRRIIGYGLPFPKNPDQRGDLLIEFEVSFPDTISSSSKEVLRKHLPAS
UniProt Q9BTV6: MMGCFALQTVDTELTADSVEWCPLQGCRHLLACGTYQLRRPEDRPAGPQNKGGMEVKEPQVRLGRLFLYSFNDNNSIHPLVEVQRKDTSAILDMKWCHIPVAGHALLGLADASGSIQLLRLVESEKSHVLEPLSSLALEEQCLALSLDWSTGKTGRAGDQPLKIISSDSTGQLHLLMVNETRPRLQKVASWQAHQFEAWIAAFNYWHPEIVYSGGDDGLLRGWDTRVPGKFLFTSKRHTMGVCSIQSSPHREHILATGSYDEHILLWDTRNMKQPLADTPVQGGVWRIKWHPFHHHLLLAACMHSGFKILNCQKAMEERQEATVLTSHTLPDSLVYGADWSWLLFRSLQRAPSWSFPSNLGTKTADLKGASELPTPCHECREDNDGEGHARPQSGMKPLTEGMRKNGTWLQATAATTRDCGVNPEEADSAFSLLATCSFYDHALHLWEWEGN
UniProt O60869: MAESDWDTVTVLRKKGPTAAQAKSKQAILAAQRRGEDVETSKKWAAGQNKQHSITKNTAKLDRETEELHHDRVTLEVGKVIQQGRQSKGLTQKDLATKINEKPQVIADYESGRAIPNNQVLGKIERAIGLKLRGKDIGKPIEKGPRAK

crizotinib = compound: C[C@@H](Oc1cc(-c2cnn(C3CCNCC3)c2)cnc1N)c1c(Cl)ccc(F)c1Cl [crizotinib]
In short: as §1

[2] = compound: C[C@@H]1COCCN1C2=NC(=NC(=C2)C3(CC3)S(=O)(=O)C)C4=C5C=CNC5=CC=C4
In short: as §1

[3] = compound: C[C@H](C1=CC=C(C=C1)C(=O)NC2=C3C=CNC3=NC=C2)N
In short: as §1

duvelisib = compound: C[C@H](Nc1ncnc2nc[nH]c12)c1cc2cccc(Cl)c2c(=O)n1-c1ccccc1 [duvelisib]
In short: as §1

gandotinib = compound: Cc1cc(Nc2cc(CN3CCOCC3)c3nc(C)c(Cc4ccc(Cl)cc4F)n3n2)n[nH]1 [gandotinib]
In short: as §1

tozasertib = compound: Cc1cc(Nc2cc(N3CCN(C)CC3)nc(Sc3ccc(NC(=O)C4CC4)cc3)n2)n[nH]1 [tozasertib]
In short: as §1

[4] = compound: Cc1cc(SCc2sc(-c3ccc(C(F)(F)F)cc3)nc2C)ccc1OCC(=O)O
In short: as §1

doramapimod = compound: Cc1ccc(-n2nc(C(C)(C)C)cc2NC(=O)Nc2ccc(OCCN3CCOCC3)c3ccccc23)cc1 [doramapimod]
In short: as §1

ispinesib = compound: Cc1ccc(C(=O)N(CCCN)[C@@H](c2nc3cc(Cl)ccc3c(=O)n2Cc2ccccc2)C(C)C)cc1 [ispinesib]
In short: as §1

Measured: log2 fold change

DNPEP (UniProt Q9ULA0)
inactive: [1] -0.011 | crizotinib 0.007 | [2] 0.029 | [3] -0.013 | duvelisib 0.039 | gandotinib 0.014 | tozasertib -0.039 | [4] -0.02 | doramapimod 0.006 | ispinesib 0.021

DNAJC21 isoform 3 (UniProt Q5F1R6)
inactive: [1] -0.056 | crizotinib -0.01 | [2] -0.265 | [3] 0.149 | duvelisib -0.08 | gandotinib 0.009 | tozasertib 0.058 | [4] 0.057 | doramapimod 0.101 | ispinesib -0.073

DRG1 (UniProt Q9Y295)
inactive: [1] -0.01 | crizotinib -0.006 | [2] -0.074 | [3] 0.062 | duvelisib 0.003 | gandotinib 0.048 | tozasertib -0.018 | [4] -0.008 | doramapimod 0.026 | ispinesib 0.02

ECI2 (UniProt O75521)
inactive: [1] 0.017 | crizotinib 0.042 | [2] 0.072 | [3] -0.011 | duvelisib 0.033 | gandotinib -0.026 | tozasertib -0.034 | [4] 0.015 | doramapimod -0.026 | ispinesib 0.028

DNAJC13 (UniProt O75165)
inactive: [1] -0.028 | crizotinib 0.013 | [2] 0.004 | [3] 0.082 | duvelisib 0 | gandotinib -0.08 | tozasertib 0.02 | [4] 0.015 | doramapimod 0.005 | ispinesib -0.266

DTD1 (UniProt Q8TEA8)
inactive: [1] -0.062 | crizotinib 0.046 | [2] 0.021 | [3] 0.048 | duvelisib 0.047 | gandotinib -0.058 | tozasertib -0.054 | [4] 0 | doramapimod -0.035 | ispinesib 0.071

DUSP3 (UniProt P51452)
inactive: [1] 0.056 | crizotinib 0.061 | [2] 0.06 | [3] -0.107 | duvelisib 0.067 | gandotinib -0.064 | tozasertib 0.016 | [4] 0.074 | doramapimod 0.005 | ispinesib 0.045

DRG2 (UniProt P55039)
inactive: [1] 0.014 | crizotinib 0.046 | [2] 0.037 | [3] -0.03 | duvelisib 0.064 | gandotinib -0.027 | tozasertib 0.026 | [4] 0.017 | doramapimod -0.03 | ispinesib 0.076

E4F1 (UniProt Q66K89)
inactive: [1] -0.558 | crizotinib 0.194 | [2] -0.112 | [3] -0.021 | duvelisib -0.225 | gandotinib 0.213 | tozasertib -0.006 | [4] -0.008 | doramapimod 0.087 | ispinesib -0.064

DSTN (UniProt P60981)
inactive: [1] 0.05 | crizotinib 0.041 | [2] 0.029 | [3] -0.051 | duvelisib 0.029 | gandotinib 0.013 | tozasertib 0.035 | [4] 0.028 | doramapimod -0.017 | ispinesib 0.085

DR1 (UniProt Q01658)
inactive: [1] 0.025 | crizotinib 0.089 | [2] 0.051 | [3] -0.017 | duvelisib 0.062 | gandotinib -0.072 | tozasertib -0.003 | [4] 0.011 | doramapimod -0.037 | ispinesib 0.026

ECHS1 (UniProt P30084)
inactive: [1] 0.023 | crizotinib 0.019 | [2] 0.061 | [3] -0.114 | duvelisib -0.002 | gandotinib 0.128 | tozasertib -0.026 | [4] 0.044 | doramapimod -0.023 | ispinesib 0.161

DONSON (UniProt Q9NYP3)
inactive: [1] 0.033 | crizotinib -0.343 | [2] -0.352 | [3] 0.027 | duvelisib -0.26 | gandotinib -0.297 | tozasertib -0.088 | [4] -0.304 | doramapimod -0.071 | ispinesib -0.02

ECHDC1 (UniProt Q9NTX5)
inactive: [1] 0.013 | crizotinib 0.018 | [2] 0.037 | [3] -0.029 | duvelisib 0.022 | gandotinib 0.086 | tozasertib -0.026 | [4] -0.029 | doramapimod -0.021 | ispinesib 0.055

DPM1 (UniProt O60762)
inactive: [1] 0.079 | crizotinib -0.053 | [2] 0.059 | [3] -0.014 | duvelisib 0.001 | gandotinib -0.065 | tozasertib 0.008 | [4] -0.017 | doramapimod -0.031 | ispinesib -0.061

DNAJC3 (UniProt Q13217)
inactive: [1] 0.052 | crizotinib 0.078 | [2] 0.037 | [3] 0.114 | duvelisib 0.004 | gandotinib 0.044 | tozasertib 0.014 | [4] 0.009 | doramapimod 0.032 | ispinesib 0.003

DPY30 (UniProt Q9C005)
inactive: [1] -0.2 | crizotinib 0.141 | [2] 0.011 | [3] -0.326 | duvelisib 0.661 | gandotinib 0.344 | tozasertib 0.047 | [4] -0.088 | doramapimod -0.245 | ispinesib 0.496

DNM1L isoform 6 (UniProt O00429)
inactive: [1] 0.041 | crizotinib -0.034 | [2] 0.126 | [3] -0.025 | duvelisib 0.085 | gandotinib 0.006 | tozasertib -0.031 | [4] 0 | doramapimod 0.001 | ispinesib -0.042

2 neighbouring entries already listed, for reference:
DPM1 (UniProt O60762)
inactive: [1] 0.079 | crizotinib -0.053 | [2] 0.059 | [3] -0.014 | duvelisib 0.001 | gandotinib -0.065 | tozasertib 0.008 | [4] -0.017 | doramapimod -0.031 | ispinesib -0.061

DNAJC3 (UniProt Q13217)
inactive: [1] 0.052 | crizotinib 0.078 | [2] 0.037 | [3] 0.114 | duvelisib 0.004 | gandotinib 0.044 | tozasertib 0.014 | [4] 0.009 | doramapimod 0.032 | ispinesib 0.003

Continuation:

DNAJC8 (UniProt O75937)
inactive: [1] -0.011 | crizotinib 0.039 | [2] 0.037 | [3] -0.056 | duvelisib 0.036 | gandotinib -0.074 | tozasertib 0.029 | [4] 0.05 | doramapimod -0.015 | ispinesib 0.054

DNAJC12 (UniProt Q9UKB3)
inactive: [1] 0.029 | crizotinib 0.049 | [2] 0.043 | [3] 0.006 | duvelisib 0.043 | gandotinib -0.081 | tozasertib 0.039 | [4] -0.046 | doramapimod -0.012 | ispinesib 0.097

ECD isoform 3 (UniProt O95905)
inactive: [1] -0.015 | crizotinib -0.114 | [2] 0.032 | [3] 0.355 | duvelisib -0.123 | gandotinib 0.062 | tozasertib 0.083 | [4] 0.145 | doramapimod 0.157 | ispinesib -0.166

EAF1 (UniProt Q96JC9)
inactive: [1] 0.032 | crizotinib 0.078 | [2] 0.13 | [3] -0.034 | duvelisib 0.093 | gandotinib -0.002 | tozasertib -0.029 | [4] -0.095 | doramapimod 0 | ispinesib -0.005

DNAJC9 (UniProt Q8WXX5)
inactive: [1] 0.026 | crizotinib 0.002 | [2] 0.038 | [3] -0.045 | duvelisib 0.027 | gandotinib -0.055 | tozasertib 0.018 | [4] -0.007 | doramapimod -0.062 | ispinesib -0.013

ECSIT (UniProt Q9BQ95)
inactive: [1] 0.024 | crizotinib 0.027 | [2] 0.032 | [3] 0.025 | duvelisib 0.022 | gandotinib -0.045 | tozasertib 0.012 | [4] -0.056 | doramapimod 0.011 | ispinesib 0.03

DNAJB11 (UniProt Q9UBS4)
inactive: [1] 0.009 | crizotinib 0.029 | [2] -0.014 | [3] 0.094 | duvelisib 0.002 | gandotinib 0.022 | tozasertib -0.002 | [4] -0.011 | doramapimod 0.022 | ispinesib -0.018

EDARADD (UniProt Q8WWZ3)
inactive: [1] 0.04 | crizotinib 0.037 | [2] 0.059 | [3] -0.006 | duvelisib 0.066 | gandotinib 0.005 | tozasertib 0.035 | [4] 0.051 | doramapimod -0.046 | ispinesib 0.027

DSG2 (UniProt Q14126)
inactive: [1] 0.039 | crizotinib -0.046 | [2] -0.019 | [3] -0.079 | duvelisib 0.038 | gandotinib 0.008 | tozasertib -0.033 | [4] -0.016 | doramapimod 0.032 | ispinesib -0.078

DNAJB4 (UniProt Q9UDY4)
inactive: [1] 0.031 | crizotinib 0.006 | [2] 0.049 | [3] -0.013 | duvelisib 0.023 | gandotinib -0.001 | tozasertib -0.037 | [4] 0.052 | doramapimod -0.02 | ispinesib -0.051

DPH7 (UniProt Q9BTV6)
inactive: [1] 0.002 | crizotinib -0.016 | [2] 0.052 | [3] -0.069 | duvelisib 0.077 | gandotinib -0.023 | tozasertib -0.025 | [4] -0.04 | doramapimod 0.03 | ispinesib 0.014

EDF1 (UniProt O60869)
inactive: [1] -0.024 | crizotinib 0.011 | [2] -0.058 | [3] -0.067 | duvelisib 0.024 | gandotinib -0.045 | tozasertib -0.047 | [4] -0.022 | doramapimod -0.053 | ispinesib 0.022
